Experimental data: patent US11447754B2, “In vitro methods of chemical conversion using non-stereospecific glutathione lyases” (WISCONSIN ALUMNI RESEARCH FOUNDATION, priority 2017, dated 2022)
Several values for one entry are separate records, joined by “and”; a condition that tells them apart may be missing. Identical values can stand only once. For some of these results: The name of at least one read-out is uncertain. Some of these results come from one statement about several compounds together.

Assays:
[1] = Kinetics analysis of GS-HPV cleavage (conversion into HPV), β(R)-stereoisomer; type: biochemical; conditions: 25° C., pH 8.5
Protocol: (§1) Kinetics analysis of GS-HPV cleavage. The Reaction Buffer (RB) consisted of 25 mM Tris-HCl (pH 8.5) and 25 mM NaCl. The β(R)- and β(S)-stereoisomers of GS-HPV were separately generated by incubating racemic MPHPV (0.46 mM) in RB with 5 mM reduced glutathione (GSH) and either 38 μg/mL LigF1 or 36 μg/mL LigE, respectively, for several h. This sample, containing a single GS-HPV stereoisomer, guaiacol, and the unreacted MPHPV stereoisomer, was diluted with RB to achieve the desired concentration of GS-HPV for the time course reaction (0.005, 0.011, 0.022, 0.096, or 0.193 mM). An additional 5 mM GSH (dissolved in RB) was added prior to initiation of each time course. […] Assays were performed at 25° C., and at specified time points, 300 μL of the reaction was removed and combined with 100 μL 1 M HCl (Acros Organics; Geel, Belgium) to stop the reaction before HPLC analysis to quantify HPV formed.
(§2) HPLC analysis. After extracellular aromatics were identified using LC-MS, routine analysis and quantification of aromatics were performed using an Ultra AQ C18 5 μm column (Restek, Bellefonte, Pa.) attached to a System Gold HPLC (Beckman Coulter, Brea, Calif.) with running buffers and chromatography conditions described in FIG. 14. […]

[2] = Kinetics analysis of GS-HPV cleavage (conversion into HPV), β(S)-stereoisomer; type: biochemical; conditions: 25° C., pH 8.5
Protocol: as §1, §2

[3] = Pereira et al. 2016; cited from earlier work
[4] = Assays to determine activities and stereospecificities of Saro_2872 and Saro_2873; type: biochemical; conditions: polypeptide alone (~24 nM, cell-free synthesized); 0.1 mM racemic MPHPV, GSH; 30° C.
Protocol: Cell-free protein synthesis. Cell-free protein synthesis was run essentially as previously described (Makino et al. 2014). The Saro_2872 polypeptide contained a His6-tag and a Tev protease recognition site on its N-terminus that were not removed. The Saro_2873 polypeptide was synthesized in its native form. Synthesized polypeptides were not purified from the synthesis reaction mixture; assays for enzymatic activity were performed by adding aliquots directly from the synthesis reaction. Concentrations of the Saro_2872 and Saro_2873 polypeptides in the reaction mixtures were approximated using the intensities of the bands in an SDS-PAGE gel.
0.1 mM racemic (β(S) and β(R)) MPHPV was combined with 5.8 mM glutathione (GSH) in reaction buffer (RB; 25 mM Tris-HCl (pH 8.0) and 25 mM NaCl). […] These 212 μL reactions were incubated at 30° C. for several hours, then analyzed via HPLC.
HPLC analysis. Analysis and quantification of aromatic compounds were performed using an Ultra AQ C18 5 μm column (Restek) attached to a System Gold HPLC (Beckman Coulter) with running buffers and methods described in Example 1. The eluent was analyzed for light absorbance between 191 and 600 nm, and absorbances at 280 nm were used for quantification of aromatic metabolites by comparing peak areas to those of standards.

Molecule | kcat/KM [1] | kcat/KM [2] | kcat/KM reported for LigG with β(R)-GS-HPV [3] [M⁻¹ s⁻¹] | GS-HPV formed, relative to the initial MPHPV concentration [4] [%]
NaGSTNu: Nu-class glutathione S-transferase from Novosphingobium aromaticivorans DSM 12444 (Saro_2595), SEQ ID NO:18; non-stereospecific glutathione lyase (protein, Novosphingobium aromaticivorans, non-stereospecific glutathione lyase) MSSEYVPPKVWKWDKANGGAFASVNRPVAGPTSERELPVGKHPFQVYSLGTPNGQKATIMLEELLQLGFSEAEYDAWLIKIFEGDQFTSGFVDINPNSKIPAMVDRSGPEPFRVFESGAILMHLAEKFGVFLPTSGPARAECLSWLFWQVGSAPFIGGGFGHFYNYAPIKIEYAIDRYAMETKRLFDVANRRLAESRYLAGDEYTIADLATYTWFGNIYRGEAYGEAATFLSMHEYEHVGRWVGEIDARPGVLRGRLVNSSKGLAERHDASDFDALPPESLQAIVKGF | ~1.9e+06 M⁻¹ s⁻¹ and 1.9e+06 M⁻¹ s⁻¹ | ~8e+06 M⁻¹ s⁻¹ and 8e+06 M⁻¹ s⁻¹ | – | –
LigG: stereospecific glutathione lyase from Sphingobium sp. SYK-6, SEQ ID NO:16 (protein, Sphingobium sp. SYK-6) MAEPQELTIYHIPGCPFSERVEIMLELKGLRMKDVEIDISKPRPDWLLAKTGGTTALPLLDVENGESLKESMVILRYLEQRYPEPAVAHPDPFCHAVEGMLAELAGPFSGAGYRMILNREIGKREEMRAAVDAEFGKVDAFLKRYATGSDFLFDDRFGWAEVAFTPMFKRLWFLDYYEDYEVPANFDRVLRWRAACTAHPAAQYRSKEELLKLYYDYTQGGGNGRIPEGRSISSFSPDVDWRTRPMPPRDKWGHAATDAELGLTR | – | – | 1.7e+06 | –
SYK6GSTNu: Nu-class GST from Sphingobium sp. SYK-6 encoded by SLG_04120, SEQ ID NO:22 (protein, Sphingobium sp. SYK-6) MADSDPSMNQPTGYVPPKVWTWDKENGGQFSNINAPTAGARQDVTLPVGEHPIQLYSLGTPNGQKVTIMLEELLAAGFDAEYDAWLIKIYTGEQFGSDFVAINPNSKIPAMMDHGLDPPLRLFESGSMLVYLAEKFGAFLPTEIRKRTETFNWLMWQMGSAPFVGGGFGHFYAYAPFKIEYAIDRYAMETKRQLDVLDKNLADREFMIGDEITIADFAIFPWYGSIMRGGYNAQEFLSTHEYRNVDRWVTQLSERTGVKRGLLVNSAGRPGGGIAERHSAADLDASIKAAEQEAAKTEA | ~240000 M⁻¹ s⁻¹ and 240000 M⁻¹ s⁻¹ | 2.7e+06 M⁻¹ s⁻¹ | – | –
Saro_2872: polypeptide from Novosphingobium aromaticivorans, SEQ ID NO:40; subunit of BaeA (protein, Novosphingobium aromaticivorans, subunit of BaeA) MSALLYHGEPNGASLTVLAALAETGLDIECRRIDLLAGERHSLPGIVDPVALDLSIEGEGPVLVIDGEAMTESVFLAQYLDEAAGGVGLQPTDAYARWEMMMWCRQITERLSPAAALLGNLATSQSAIAAIPAEDFAILAARIVSDDLRERWQALNDDAVNAAQVADSETKVAAAVDRCEKQLGDGREWLMGTFSIADLVTYSWLAGMEPLRPAAFADAPLVKAWLARTAARPCVQAALARATISEPLRAWAPGPEINRWG | – | – | – | < 1
Saro_2873: polypeptide from Novosphingobium aromaticivorans, SEQ ID NO:42; catalytically dominant subunit of BaeA (protein, Novosphingobium aromaticivorans, catalytically dominant subunit of BaeA) MDEVSLYHWEPNANSGKPMLALMEKGVPFSSHYIDMLQFDQHKPEYLAINPQGTIPAMTHNGQVLTESTAIMEYVNDRFDGPDLMPADAQDRWRVRWWMKFMDQWLGPSFSMIGWSVFVGPMVRQRDPAELAAAIDRIPLPERRTAWRKAINGDFSESEMAESRRRVGLGIAKLEEELGKRPYVGSNQYSLADINIFNSTYSLPISQPDLAGKDRTPNIMRWLKRVYTREAVKKTWAMGKTDLAHRYGLIMAEIEG | – | – | – | < 1
